Experimental data reported in publication PMC10643674.
No constants are given. Whether binding was seen depends on the method and setting. Binding seen in cells or lysates may run through a third protein. A result given as binding can be weak or reduced; the word gives no strength.

Sequences of proteins named here, by UniProt entry; tags and fusion partners are left off. A change or cut given only in a name is not applied to a line headed by its entry.
UniProt Q96J02: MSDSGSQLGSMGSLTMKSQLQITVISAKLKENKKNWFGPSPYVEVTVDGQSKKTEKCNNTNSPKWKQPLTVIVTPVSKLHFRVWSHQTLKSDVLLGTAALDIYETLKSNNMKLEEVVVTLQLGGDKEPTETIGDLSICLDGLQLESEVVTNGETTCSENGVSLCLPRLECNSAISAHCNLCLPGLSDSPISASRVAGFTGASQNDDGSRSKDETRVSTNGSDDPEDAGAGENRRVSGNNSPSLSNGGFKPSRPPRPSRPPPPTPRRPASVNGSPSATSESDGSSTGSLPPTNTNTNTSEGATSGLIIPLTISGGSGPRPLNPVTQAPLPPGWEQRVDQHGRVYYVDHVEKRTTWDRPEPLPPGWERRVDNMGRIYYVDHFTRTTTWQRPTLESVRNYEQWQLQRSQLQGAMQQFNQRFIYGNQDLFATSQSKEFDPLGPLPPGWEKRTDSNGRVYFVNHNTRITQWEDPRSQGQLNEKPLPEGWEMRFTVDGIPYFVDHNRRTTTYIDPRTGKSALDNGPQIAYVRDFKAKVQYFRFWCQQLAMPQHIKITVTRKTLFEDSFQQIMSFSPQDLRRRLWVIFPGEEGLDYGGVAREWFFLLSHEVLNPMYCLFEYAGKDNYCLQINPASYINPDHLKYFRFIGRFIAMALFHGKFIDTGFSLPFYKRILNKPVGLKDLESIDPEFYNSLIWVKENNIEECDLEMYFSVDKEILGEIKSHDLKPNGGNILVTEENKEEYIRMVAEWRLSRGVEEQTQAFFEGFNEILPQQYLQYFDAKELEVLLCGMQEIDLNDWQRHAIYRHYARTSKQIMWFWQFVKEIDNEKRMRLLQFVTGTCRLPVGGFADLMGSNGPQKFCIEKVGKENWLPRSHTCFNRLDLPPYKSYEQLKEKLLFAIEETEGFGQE
UniProt P12956: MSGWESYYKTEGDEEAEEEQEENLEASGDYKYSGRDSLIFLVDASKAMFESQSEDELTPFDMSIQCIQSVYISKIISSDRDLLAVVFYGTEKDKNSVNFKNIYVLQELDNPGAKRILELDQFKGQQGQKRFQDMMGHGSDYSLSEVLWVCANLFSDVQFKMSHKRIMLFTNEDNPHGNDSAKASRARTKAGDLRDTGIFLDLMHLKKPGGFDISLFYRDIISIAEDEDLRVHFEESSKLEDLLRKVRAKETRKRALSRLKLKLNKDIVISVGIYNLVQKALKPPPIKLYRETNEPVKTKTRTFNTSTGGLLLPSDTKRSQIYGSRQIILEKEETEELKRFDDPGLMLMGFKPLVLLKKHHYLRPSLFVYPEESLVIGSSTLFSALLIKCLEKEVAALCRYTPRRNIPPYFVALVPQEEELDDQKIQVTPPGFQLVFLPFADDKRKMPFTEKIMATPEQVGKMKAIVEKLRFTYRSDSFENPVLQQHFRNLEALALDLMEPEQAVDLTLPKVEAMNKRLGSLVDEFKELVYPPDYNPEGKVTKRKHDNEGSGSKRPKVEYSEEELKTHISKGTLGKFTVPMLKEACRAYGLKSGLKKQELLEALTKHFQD
UniProt O95155: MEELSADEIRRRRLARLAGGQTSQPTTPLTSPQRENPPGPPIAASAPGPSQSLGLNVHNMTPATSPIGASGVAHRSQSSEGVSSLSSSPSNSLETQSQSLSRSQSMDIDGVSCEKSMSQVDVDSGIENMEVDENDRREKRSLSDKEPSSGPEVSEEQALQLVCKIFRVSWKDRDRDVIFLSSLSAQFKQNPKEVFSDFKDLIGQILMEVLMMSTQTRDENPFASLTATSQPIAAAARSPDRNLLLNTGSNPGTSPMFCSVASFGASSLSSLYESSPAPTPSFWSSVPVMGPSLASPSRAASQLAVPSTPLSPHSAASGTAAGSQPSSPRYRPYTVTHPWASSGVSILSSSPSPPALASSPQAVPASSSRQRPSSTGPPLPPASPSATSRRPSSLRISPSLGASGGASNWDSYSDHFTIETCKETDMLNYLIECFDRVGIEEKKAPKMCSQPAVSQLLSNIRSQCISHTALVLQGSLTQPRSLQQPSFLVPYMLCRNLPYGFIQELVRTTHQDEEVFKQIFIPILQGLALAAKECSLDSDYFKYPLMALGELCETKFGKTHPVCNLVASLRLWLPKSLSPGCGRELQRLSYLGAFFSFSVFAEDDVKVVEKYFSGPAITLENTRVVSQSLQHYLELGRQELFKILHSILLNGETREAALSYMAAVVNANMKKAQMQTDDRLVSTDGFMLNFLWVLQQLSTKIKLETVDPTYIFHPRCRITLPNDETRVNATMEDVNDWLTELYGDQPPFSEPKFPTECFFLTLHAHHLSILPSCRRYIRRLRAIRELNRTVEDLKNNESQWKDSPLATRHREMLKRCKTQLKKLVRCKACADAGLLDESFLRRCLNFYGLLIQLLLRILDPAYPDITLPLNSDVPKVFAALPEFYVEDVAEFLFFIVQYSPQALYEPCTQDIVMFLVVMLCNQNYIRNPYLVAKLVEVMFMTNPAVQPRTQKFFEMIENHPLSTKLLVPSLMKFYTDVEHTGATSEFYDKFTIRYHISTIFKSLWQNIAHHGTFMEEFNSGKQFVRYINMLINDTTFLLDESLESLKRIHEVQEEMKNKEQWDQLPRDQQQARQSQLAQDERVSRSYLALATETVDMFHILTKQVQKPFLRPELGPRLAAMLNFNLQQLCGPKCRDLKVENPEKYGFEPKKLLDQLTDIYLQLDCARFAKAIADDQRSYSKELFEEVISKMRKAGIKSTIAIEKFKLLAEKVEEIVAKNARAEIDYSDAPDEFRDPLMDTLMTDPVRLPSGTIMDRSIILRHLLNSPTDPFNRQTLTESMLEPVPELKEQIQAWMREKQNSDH

Assays:
Assay in all cases: co-IP; HEK 293T cells transiently transfected with tagged ITCH, Ku70 and/or c-FLIPL constructs; lysis and washes in CHAPS buffer (1% CHAPS, 10 mM HEPES, 150 mM NaCl); 2 μg antibody (Myc, Flag, ITCH, UBE4B, Ku70 or c-FLIP) and protein A/G Plus agarose at 4 °C; Western blot; some samples with 5 µM MG132 for 8 h
[1] = target: ITCH phosphomimic mutant S199D (UniProt Q96J02)
[2] = target: ITCH phosphomimic mutant T222D (UniProt Q96J02)
[3] = target: ITCH phosphomimic mutant S232D (UniProt Q96J02)
[4] = target: Flag-ITCHw3 (Flag-ITCH WW deleted mutant, only the WW3 domain kept) (UniProt Q96J02)
[5] = target: Flag-ITCHw2 (Flag-ITCH WW deleted mutant, only the WW2 domain kept) (UniProt Q96J02)
[6] = target: Flag-ITCHw1 (Flag-ITCH WW deleted mutant, only the WW1 domain kept) (UniProt Q96J02)
[7] = target: Flag-ITCHw4 (Flag-ITCH WW deleted mutant, only the WW4 domain kept) (UniProt Q96J02)

Measured: binding

Flag-Ku70 (from UniProt P12956 1-609)
binds: [1] | [2] | [3]

endogenous Ku70 (from UniProt P12956 1-609)
binds: [4] | [5] | [6]

endogenous UBE4B (from UniProt O95155 1-1302) (enzyme)
binds: [1] | [2] | [7] | [3] | [6]
